The supplement of paper PMC3334620
In all, about 33,000 sequences were measured (“E-score (-0.5 to 0.5)”: median about -8e-05, highest 2% from about 0.23 on). The list shows a part of the results.

Target: T1, Nrg2 (UniProt P38082)
T1 sequence: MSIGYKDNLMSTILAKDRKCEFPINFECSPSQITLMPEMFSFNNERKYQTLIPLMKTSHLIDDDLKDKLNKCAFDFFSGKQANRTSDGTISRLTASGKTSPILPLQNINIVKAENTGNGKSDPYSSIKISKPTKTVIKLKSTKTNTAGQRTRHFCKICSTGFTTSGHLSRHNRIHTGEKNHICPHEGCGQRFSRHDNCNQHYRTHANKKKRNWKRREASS
Assay: PBM E-score (8-mer binding enrichment) (E-score (-0.5 to 0.5)); higher = stronger / more preferred TF binding
Conditions: protein concentration: 100 nM; construct: GST-full length
Summary of the method: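 Yeast transcription factors, full-length or as DNA-binding domains, were expressed with a GST tag using PURExpress in vitro transcription/translation. At about 100-200 nM they were applied to universal all-10-mer Agilent arrays, double-stranded by primer extension on fresh or once-stripped slides. Fluorescent anti-GST detected bound protein, and masliner normalised the scans. E-scores for ungapped eight-base words, pooled with reverse complements, came from the Universal PBM Analysis Suite.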

Row | Sequence | PBM E-score
1 | CGGGGACC | 0.102
2 | CTATTGAA | 0.0144
3 | ATATTCTG | 0.0955
4 | TCATACAA | 0.138
5 | CCAGCTCG | 0.0153
6 | CACTGGCA | -0.00684
7 | CGGAGGCC | -0.162
8 | CTTACGCA | -0.08
9 | AATACGTC | 0.145
10 | CTAAGGTA | 0.00228
11 | ATTAGCGA | 0.0813
12 | ATTACATC | 0.0257
13 | ACTTGTCC | 0.0857
14 | AGATAAGG | -0.0277
15 | TAGTGACA | 0.145
16 | GGTAGCTA | -0.233
17 | ACAAGCCT | -0.131
18 | AGGTATAT | 0.0308
19 | GTCTGCAA | -0.116
20 | AGCGACCC | 0.00901
21 | ATTGTCAG | 0.144
22 | AGGGGATC | 0.0237
23 | ACTGTACC | -0.0875
24 | CGTAATCC | -0.0966
25 | GAGAGACA | 0.00612

Row | Sequence | PBM E-score
26 | AGCCGCAG | -0.132
27 | CGTACAGA | -0.05
28 | GACGAATA | 0.157
29 | AAGGAATG | 0.0282
30 | AATATGAG | -0.0197
31 | ATCTTCAA | 0.132
32 | CAGACTCG | -0.115
33 | ACATTGAA | 0.029
34 | ATCTAGCC | -0.0644
35 | GGGGCGCA | 0.0245
36 | ACACGCTC | 0.0681
37 | CCGCACCG | 0.0134
38 | ATTAGCTC | -0.0144
39 | ATAACCTA | -0.0799
40 | CTTGCCGA | -0.043
41 | ACCTCAGC | -0.00482
42 | ACCGTGAA | -0.0653
43 | AGCCTACA | -0.167
44 | AGGGCATG | 0.0783
45 | CACTCGCC | 0.116
46 | GGGCCTGA | -0.147
47 | CCGGTACA | 0.0503
48 | CAACAGCC | 0.00168
49 | CACGAAGA | 0.113
50 | ATGTCATC | 0.0149

Row | Sequence | PBM E-score
51 | ACAGGTGC | -0.0434
52 | ACGTAGTA | -0.0284
53 | ACGGGCGA | -0.0214
54 | AGTGCCAG | -0.0144
55 | ACTGATGG | -0.22
56 | GGCCAGAA | 0.103
57 | CAGACGAA | 0.252
58 | CGCTTCGA | 0.00635
59 | CCGAGATA | 0.191
60 | CGAGCAAA | 0.0887
61 | AAACCGCG | 0.266
62 | TCCCGGGA | 0.0255
63 | ACTACTTA | -0.08
64 | CTCTGGAA | -0.131
65 | ACAACAAA | 0.036
66 | CCTCGGCA | -0.0447
67 | AAGCACCG | -0.13
68 | GCGCCTGA | 0.15
69 | CACTGGAC | 0.0413
70 | ATAGGGAT | 0.0573
71 | GTCACAAC | 0.0831
72 | CGACGGAA | 0.0399
73 | GCGAGGAC | -0.127
74 | CTTGCTTC | 0.00315
75 | AGTTCATA | 0.109

Row | Sequence | PBM E-score
76 | AGAAATCA | 0.112
77 | CCCCTAGA | 0.117
78 | CCACACAC | 0.0611
79 | CTCCGGAC | -0.0445
80 | AACGCGCG | 0.319
81 | GGCAGCGA | -0.112
82 | GGGATACA | 0.0129
83 | ATGGAAAT | 0.141
84 | GGTCTCGA | 0.0782
85 | GACGGTCA | -0.11
86 | ACCGAGGC | -0.284
87 | CTACGCAA | -0.0895
88 | CCTAGCAG | -0.126
89 | GTTGGTTA | 0.0754
90 | AGTTTACG | -0.0635
91 | AGTCTTAT | -0.0873
92 | CACCTGGG | -0.0933
93 | AGTGATGG | -0.138
94 | AGCCACGA | -0.0898
95 | ATGGTAAC | 0.166
96 | CCATCGAC | 0.0341
97 | GAACGTCC | -0.0192
98 | AACTATGA | 0.0466
99 | TAGAAAAA | -0.0763
100 | AGGCCATA | -0.0391

Exported comma-delimited: part of the list above.
Row,Sequence,PBM E-score
43,AGCCTACA,-0.167
44,AGGGCATG,0.0783
45,CACTCGCC,0.116
46,GGGCCTGA,-0.147
47,CCGGTACA,0.0503

Later entries

Row | Sequence | PBM E-score
101 | ACTTAGTG | -0.0564
102 | ATCGATAC | 0.133
103 | AGGATAAC | -0.135
104 | GCCACGTA | -0.112
105 | CCCGCAGC | -0.277
106 | GGGAAATA | 0.162
107 | CTATCTGC | -0.0656
108 | GGCAGTTA | -0.128
109 | CAACGGCA | 0.0862
110 | GATCGCAA | 0.224
111 | CGCGGTCC | 0.0454
112 | CATGCTTC | -0.0521
113 | AAATGAAC | 0.0486
114 | GACAGATA | 0.173
115 | GTCATTAA | 0.25
116 | CAGCTACG | -0.149
117 | CGTTGGTA | -0.115
118 | CTGTATTA | 0.147
119 | AGTCTCAT | -0.0971
120 | CCCAGTTA | -0.0575
121 | CACATGTA | 0.111
122 | ACCGCCCG | -0.137
123 | AAGTCGGG | -0.101
124 | ATAATATC | 0.105
125 | GACTTTGA | -0.0905

Row | Sequence | PBM E-score
126 | CCCAGTGA | -0.167
127 | CTATTGGA | -0.00122
128 | CTAGGGAA | -0.00067
129 | CTCGACAC | -0.0495
130 | ACATGCAC | 0.0557
131 | GACAGCCC | -0.099
132 | CCGTAGGC | -0.184
133 | GTCACCGA | 0.102
134 | CTGATTAC | 0.133
135 | GGATAGTA | 0.177
136 | TATTAGCA | 0.18
137 | ATACGGCC | 0.0131
138 | CGGACATA | 0.0251
139 | CCCCATCG | -0.0641
140 | GAGATGAC | 0.0187
141 | GGTCGATA | -0.0501
142 | CGACTCCA | -0.157
143 | GTGGTGCA | -0.162
144 | GCCGATCC | -0.11
145 | GCCAAATA | 0.0814
146 | AACCAGAC | -0.0716
147 | CCATCTGC | 0.083
148 | AGTGCAAC | 0.0143
149 | GTGTGGTA | -0.0596
150 | GTGCTCGA | 0.00554

Row | Sequence | PBM E-score
151 | AAACGCAA | 0.161
152 | GAGCATCC | -0.0314
153 | CGCAATAC | 0.231
154 | CCGTCCAG | -0.081
155 | CCGCGTAG | 0.00103
156 | TAACGCAA | 0.0924
157 | GATGATGC | -0.12
158 | GTGCCATA | -0.145
159 | GCTAAGCC | -0.151
160 | ACACAGGC | 0.0691
161 | GAACGTTA | -0.19
162 | GGATACTA | 0.0405
163 | AAGAGTGG | -0.194
164 | GGAACCAA | 0.118
165 | GATCCCCC | -0.35
166 | GCGCATAC | 0.094
167 | CATTACGG | -0.035
168 | GGTCTAGA | -0.109
169 | CACGGTAA | -0.109
170 | CCGATATA | 0.0102
171 | GTTCCCAA | -0.104
172 | CGCTAGCC | -0.255
173 | CTCCTCAA | -0.246
174 | AATTATTA | 0.0775
175 | CTCCCCAA | -0.0319

A second format for some results above.
Row	Sequence	PBM E-score
1	CGGGGACC	0.102
2	CTATTGAA	0.0144
3	ATATTCTG	0.0955
7	CGGAGGCC	-0.162
10	CTAAGGTA	0.00228
13	ACTTGTCC	0.0857
15	TAGTGACA	0.145
16	GGTAGCTA	-0.233
19	GTCTGCAA	-0.116
20	AGCGACCC	0.00901
21	ATTGTCAG	0.144
24	CGTAATCC	-0.0966
25	GAGAGACA	0.00612
26	AGCCGCAG	-0.132
27	CGTACAGA	-0.05
28	GACGAATA	0.157
34	ATCTAGCC	-0.0644
36	ACACGCTC	0.0681
38	ATTAGCTC	-0.0144
42	ACCGTGAA	-0.0653
44	AGGGCATG	0.0783
47	CCGGTACA	0.0503
48	CAACAGCC	0.00168
49	CACGAAGA	0.113
50	ATGTCATC	0.0149
51	ACAGGTGC	-0.0434
55	ACTGATGG	-0.22
63	ACTACTTA	-0.08
65	ACAACAAA	0.036
67	AAGCACCG	-0.13
68	GCGCCTGA	0.15
71	GTCACAAC	0.0831
72	CGACGGAA	0.0399
85	GACGGTCA	-0.11
95	ATGGTAAC	0.166
103	AGGATAAC	-0.135
108	GGCAGTTA	-0.128
109	CAACGGCA	0.0862
111	CGCGGTCC	0.0454
112	CATGCTTC	-0.0521
117	CGTTGGTA	-0.115
125	GACTTTGA	-0.0905
128	CTAGGGAA	-0.00067
129	CTCGACAC	-0.0495
134	CTGATTAC	0.133
138	CGGACATA	0.0251
145	GCCAAATA	0.0814
146	AACCAGAC	-0.0716
147	CCATCTGC	0.083
150	GTGCTCGA	0.00554
153	CGCAATAC	0.231
154	CCGTCCAG	-0.081
156	TAACGCAA	0.0924
160	ACACAGGC	0.0691
161	GAACGTTA	-0.19
163	AAGAGTGG	-0.194
164	GGAACCAA	0.118
165	GATCCCCC	-0.35
169	CACGGTAA	-0.109
173	CTCCTCAA	-0.246
175	CTCCCCAA	-0.0319

Remaining list, next part.

Row | Sequence | PBM E-score
176 | AGTTGCCG | 0.0108
177 | CCGTTCAG | 0.00062
178 | CTTAGGCC | -0.0245
179 | ATCTAAAG | -0.0106
180 | ACGTCTAA | 0.0439
181 | CCTTTTCG | -0.0149
182 | CGCAACAC | 0.141
183 | GCGCAACC | 0.209
184 | AATCAAAA | 0.0808
185 | CCGCGCAC | 0.019
186 | GAGGCAGA | -0.0869
187 | ACGTAGTC | -0.264
188 | CAATTAAC | 0.145
189 | CCCGCCGG | -0.0661
190 | ACGCAGCC | 0.0811
191 | AAAAGCCG | -0.0633
192 | AAATTAGT | 0.166
193 | CCAGTGCC | -0.0983
194 | ATTTTGCA | 0.0542
195 | AGCCGTAT | -0.0933
196 | GACCGGCC | -0.202
197 | CCTATAAA | -0.313
198 | CGGGAAAA | 0.0363
199 | GCCGGCGA | -0.0379
200 | GACAACAA | 0.144

Row | Sequence | PBM E-score
201 | AGCGGAAG | -0.00932
202 | AGTGAAGA | -0.00183
203 | GAGTGCAC | -0.00313
204 | AATTTTCC | 0.2
205 | AGAGATAT | 0.0597
206 | GGGAGCCC | -0.25
207 | AGCCATGA | 0.0805
208 | AACATTTA | 0.0236
209 | CAGATTAG | -0.0964
210 | TAACTTCA | 0.0665
211 | CTGTTGTA | 0.086
212 | AAAGAACA | 0.038
213 | GATTGGGA | -0.112
214 | CTCATACC | 0.0526
215 | GATGTCGC | 0.00641
216 | CTGGTGGC | 0.00474
217 | CGCTAGTA | 0.0319
218 | ACTTCTTG | 0.0237
219 | GCTTCACA | -0.0463
